In PubChem BioAssay AID493014 (National Center for Advancing Translational Sciences (NCATS), 2011) one finds AC50 data, which are given here for 39 molecules.

Some of the results follow. Shown are side measurements of this screen, not its main read-out; they come without a call. The list favours compounds with an active or inconclusive main result. The note in brackets gives the kind of curve behind each potency; many fits are weak.

This assay is described as follows: qHTS Assay to Find Inhibitors of Chronic Active B-Cell Receptor Signaling. To be noted: ABC-DLBCL IkBa-CBG/CBR reporter, luminescence ratio (green luciferase fused to IkBa over red control in TMD8 lymphoma cells), 4 h. The essentials:
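TMD8 human ABC-DLBCL cells with doxycycline-inducible IκBα–green luciferase fusion and unfused red luciferase, in 0.5% FBS medium; compounds up to 46 uM, 4 h at 37C. Green/red luminescence ratio, filter-overlap corrected, fitted to concentration-response curves.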
On the technique in general: In qHTS, concentration-response curves come from the screen itself.

Setting [1] is: measured here: CBR red luminescence, cell number.
The mark [2] stands for this setting: measured here: IkBa-CBG green luminescence.

Turning to `CC(=O)Nc1ccc(S(=O)(=O)n2cnc3ccccc32)cc1`, the AC50 under setting [1] was 6.51 µM [falling, partial curve, poor fit].
As for `O=C(CC(C(=O)NCc1ccccc1)c1nc2ccccc2c(=O)[nH]1)NCc1ccccc1` (configuration not stated), the AC50 under setting [1] was 3.16 µM [rising, partial curve].
On the same count and under the same terms, under `Cc1nonc1NC(=O)CSc1ccc(-c2ccccc2)nn1` stands 15.8 µM [rising, partial curve, poor fit]; under `O=C(c1cccs1)N1N=C(c2ccccc2)CC1c1ccc(O)cc1` (configuration not stated), 20.6 µM [falling, single point].
`Nc1nonc1-n1nnc(C(=O)N/N=C/c2ccc(OCc3ccc(F)cc3)cc2)c1COc1ccccc1`: the AC50 under setting [1] was 35.5 µM [rising, single point].
As for `O=c1c2ccccc2[nH]c(=S)n1CCN1CCc2ccccc2C1`, under setting [1], the AC50 was 35.5 µM [falling, single point].
On the same count and under the same terms, then `CCOc1ccccc1OCCCOc1ccc(C)cc1Br`, with 17.8 µM [rising, partial curve]; and `CC(C)(C)NC(=O)NC(=O)COC(=O)C1CC(=O)N(Cc2ccccc2)C1` (configuration not stated), with 35.5 µM [falling, single point].
Turning to `Cc1cc(NC(=O)c2c(F)c(F)c(F)c(F)c2F)no1`, the concentration at half-maximal activity (AC50) under setting [1] was 29.1 µM [falling, single point].
Still for that read-out and setting: then `O=C(COc1ccc(Cl)cc1Cl)NNC(=S)NC(=O)c1ccco1`, with 31.6 µM [rising, partial curve, poor fit].
As for `CCCCc1ccc(Nc2nc(CCC)cc(=O)[nH]2)cc1`, the AC50 under setting [1] was 23.1 µM [rising, partial curve].
With `Cc1cc(C(C)(C)CC(C)(C)C)ccc1OCCOCC[N+](C)(C)Cc1ccccc1`, the AC50 under setting [1] was 20.6 µM [falling, single point].
On to `CC(C)(C)NC(=O)C(c1ccco1)N(C(=O)Cn1nnc(-c2ccc(F)cc2)n1)c1ccccc1F` (configuration not stated), for which the AC50 under setting [1] was 0.0517 µM [rising, full curve, poor fit].
Regarding `O=C(Nc1ccc(S(=O)(=O)N2CCCCC2)cc1)c1ccc(F)cc1`, the AC50 under setting [1] is 35.5 µM [falling, partial curve, poor fit].
With `CCOC(=O)C1CCN(C(=O)c2ccc3c(=O)n4nc(Nc5cc(C)ccc5C)sc4nc3c2)CC1`, under setting [1], the AC50 was 35.5 µM [falling, single point].
On to `COc1ccc2nc(C)cc(Nc3ccccc3O)c2c1`, for which the AC50 by setting is: under setting [1], 35.5 µM [falling, single point]; under setting [2], 1.41 µM [rising, full curve, poor fit].
For `COC(=O)c1ccccc1NC(=O)CSc1nnc(-c2cccnc2)o1`, the AC50 under setting [1] is 7.08 µM [falling, partial curve].
As for `Cc1nn(Cc2c(F)c(F)c(F)c(F)c2F)c(C)c1NC(=O)c1ccc(COc2ccccc2Cl)o1`, the AC50 under setting [1] is 5.01 µM [falling, partial curve, poor fit].
Regarding `O=C(NCc1ccco1)C(=O)c1cn(CC(=O)N2CCCCC2)c2ccccc12`, the AC50 under setting [1] is 15.8 µM [falling, single point].
As for `CCCCN1C(=O)N(C)C2C1N(C)C(=O)N2CCCC` (configuration not stated), the AC50 is, setting by setting: under setting [1], 0.82 µM [rising, full curve, poor fit]; under setting [2], 10.3 µM [falling, partial curve, poor fit].
With `CCC[N+]1(CC#CCC(c2ccccc2)c2ccccc2)CCCCC1`, the AC50 under setting [1] was 3.16 µM [falling, partial curve].
The same measure, in the same setting: then `O=C1c2ccc(-c3ccc4c(c3)C(=O)N(CCO)C4=O)cc2C(=O)N1CCO`, with 5.62 µM [rising, single point].
On to `CCCCCC(=O)Nc1cccc(C2=NOC3(C2)C[C@H](C(N)=O)N(C(=O)COc2ccc(Cl)cc2)C3)c1` (some centres not stated), for which the AC50 under setting [1] is 22.4 µM [falling, single point].
With `Cc1cccc(N=C2NC(=O)/C(=C/c3cccn3C)S2)c1C`, the AC50 under setting [1] is 3.16 µM [falling, partial curve, poor fit].
`CN(Cc1c(C(=O)N/N=C/c2cccc(O)c2)nnn1-c1nonc1N)c1ccccc1`: the AC50 by setting is: under setting [1], 35.5 µM [falling, partial curve, poor fit]; under setting [2], 15.8 µM [rising, partial curve, poor fit].
For `CCc1ccc(NCc2nc(-c3ccccc3)no2)cc1`, under setting [1], the AC50 was 2.31 µM [rising, full curve, poor fit].
On the same count and under the same terms, then `Fc1ccc(NC(=S)Nc2ccccc2N2CCOCC2)cc1Cl`, with 35.5 µM [rising, single point].
Consider `CCCOC(=O)c1ccc(Oc2cn[nH]c2-c2ccc(OCC)cc2O)cc1`, for which the AC50 under setting [1] was 25.1 µM [falling, single point].
Still for that read-out and setting: then `CCN(C(=O)CN1C(=O)S/C(=C\C=C\c2ccccc2)C1=O)C1CCS(=O)(=O)C1` (configuration not stated), with 2 µM [falling, full curve, poor fit]; and `O=C(Nc1ccn(-c2ccccc2)n1)c1ccc(Cl)cc1`, with 29.1 µM [falling, single point].
Regarding `O=C(Nc1ccc(Cl)cn1)C1CCCN(c2ncnc3c2nc2n3CCCCC2)C1` (configuration not stated), the AC50 under setting [1] is 2.82 µM [rising, partial curve, poor fit].
Turning to `CCC(c1nnnn1Cc1ccco1)N(CCc1ccccc1)Cc1cc2cc(C)ccc2[nH]c1=O` (configuration not stated), under setting [1], the AC50 is 0.708 µM [falling, partial curve, poor fit].
For the molecule `CCCC(=O)Nc1ccc(Br)c(Cl)c1`, the AC50 under setting [1] is 16.4 µM [rising, partial curve, poor fit].
For the molecule `O=C(CS(=O)(=O)c1cn(CC(=O)N2CCOCC2)c2ccccc12)Nc1ccccc1`, the AC50 under setting [1] was 11.2 µM [falling, partial curve, poor fit].
Consider `Nc1ccc2oc3ccc(N)cc3c(=O)c2c1`, for which the concentration at half-maximal activity (AC50) under setting [1] is 29.1 µM [rising, single point].
As for `COc1ccc(-c2nn(C)c(=O)c3ccccc23)cc1CNS(C)(=O)=O`, the AC50 under setting [2] was 23.1 µM [falling, partial curve, poor fit].
For `CC(NCC1(N2CCOCC2)CCCCC1)C(=O)N1CCc2ccccc21` (configuration not stated), the AC50 under setting [1] was 1.46 µM [falling, partial curve, poor fit].
As to `COc1cc(OC)cc(C(=O)Nc2ccc(N(C)C)c3ccccc23)c1`, the AC50 under setting [1] is 7.94 µM [rising, partial curve, poor fit].
As for `COC(=O)c1nnn(-c2cccc(Cl)c2)c1C(=O)OC`, the AC50 under setting [1] was 35.5 µM [falling, single point].

Broadly, the AC50 is the midpoint of the concentration-response curve, whichever way the signal moves.
